Data: PubChem BioAssay AID1487 (National Center for Advancing Translational Sciences (NCATS), 2009)
The list shows a part of the results. The main result of the screen is listed elsewhere. These columns were measured beside it and carry no call. Compounds called inactive in the main read-out are mostly missing here. The note in brackets gives the kind of curve behind each potency; many fits are weak.

Assay: qHTS Assay for Modulators of Lamin A Splicing
Conditions: HeLa LMNA splicing GFP/RFP minigene ratio, 48 h
Method in brief: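 S3 HeLa stable clones carrying a lamin A-EGFP splicing minigene plus DsRed2 were seeded at 600 cells/well in Opti-MEM with 2% FBS, pin-dosed and incubated 48 h at 37°C. Acumen cytometry (488 nm) gave the GFP/RFP total-intensity ratio.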

[1] = measured here: GFP splicing reporter channel
[2] = measured here: RFP viability control channel

SMILES | AC50 [1] | AC50 [2]
O=C(Nc1cccc(Cl)c1)Nc1ccccc1OCc1cc(=O)n2ccccc2n1 | 1.41 µM [rising, partial curve] | 1.26 µM [rising, full curve]
CN1C(=O)CC[C@@H]1c1cccnc1 | 0.000891 µM [falling, full curve, poor fit] | 0.000891 µM [falling, full curve, poor fit]
O=C(O)C1C2C=CC(O2)C1C(=O)NCCc1cccc(Cl)c1 (stereo not given) | 2.51 µM [falling, full curve, poor fit] | 4.47 µM [falling, full curve, poor fit]
Cc1ccc(-c2nnc(-c3ccc(Br)cc3)o2)o1 |  | 12.6 µM [rising, single point]
CCOC(=O)Nc1ccc2c(c1)N(C(=O)OC)c1ccccc1CC2 | 25.1 µM [falling, single point] | 35.5 µM [falling, single point]
Cc1ccccc1Nc1nc(Cl)c(C=O)s1 |  | 14.1 µM [rising, single point]
COc1cc([N+](=O)[O-])cc(/C=N/NC(=O)C(C)Nc2cccc(C)c2)c1O (stereo not given) | 31.6 µM [rising, single point] | 25.1 µM [rising, single point]
O=C(NCCc1ccccn1)c1cc(-c2ccc(Cl)c(Cl)c2Cl)nc2ccccc12 |  | 17.8 µM [rising, partial curve]
Cc1cccc(N2CCN(C(=O)CC(NC(=O)c3ccccc3Cl)c3ccccc3)CC2)c1C (stereo not given) |  | 31.6 µM [rising, single point]
CC(=O)C1=C(c2ccc(Cl)c(Cl)c2)N(C(C)=O)n2c(C)nnc2S1 |  | 11.2 µM [rising, partial curve, poor fit]
CCOc1ccc(S(=O)(=O)N2CCN(C(=O)c3cccn3C)CC2)cc1 | 35.5 µM [rising, single point] | 22.4 µM [rising, single point]
CCCOc1ccc(C(=O)Nc2ccc(Cl)cn2)cc1 |  | 11.2 µM [rising, single point]
C=CCSSSCC=C | 20 µM [falling, single point] | 
O=[N+]([O-])c1ccc2[nH]c3c(c2c1)CCCC3O (stereo not given) | 0.00316 µM [rising, full curve, poor fit] | 
CCOc1ccc(NC(=S)N(CCc2c(C)[nH]c3ccccc23)Cc2ccco2)cc1 |  | 2 µM [rising, full curve]
c1ccc2c(c1)ccc1nnc(-c3ccc4c(c3)OCO4)n12 |  | 12.6 µM [rising, single point]
O=C(Nc1cccc(Cl)c1)c1cc(S(=O)(=O)NCCc2ccc(Cl)cc2)ccc1F | 35.5 µM [falling, single point] | 25.1 µM [falling, single point]
COc1ccc(C2C3C(=O)N(Cc4ccccc4)C(=O)C3ON2c2ccccc2)c(OC)c1OC (stereo not given) | 31.6 µM [rising, single point] | 35.5 µM [rising, single point]
Fc1ccc(C(c2nnnn2CCc2ccccc2)N2CCCc3ccccc32)cc1 (stereo not given) | 15.8 µM [rising, partial curve, poor fit] | 12.6 µM [rising, partial curve]
CN/C(=C\[N+](=O)[O-])NCCSCc1ccc(CN(C)C)o1 |  | 0.0794 µM [falling, full curve, poor fit]

SMILES | AC50 [1] | AC50 [2]
CCOC(=O)c1cc(C(=O)n2cc(Cl)cn2)nn1C |  | 3.55 µM [rising, single point]
COC(=O)c1cn(N(C)c2ncc(C(F)(F)F)cc2Cl)c(=O)c2ccccc12 |  | 31.6 µM [rising, single point]
COc1ccccc1N1CCN(C(=O)c2sc3nc4n(c(=O)c3c2C)CCC4)CC1 | 14.1 µM [rising, single point] | 25.1 µM [rising, single point]
O=C(NCCSc1ccccn1)c1ccc(Cl)cc1Cl |  | 0.00447 µM [falling, full curve, poor fit]
CC(C)Oc1ccc(C(=O)NC2(C(F)(F)F)NC(=O)N(CCCc3ccccc3)C2=O)cc1 (stereo not given) | 35.5 µM [rising, single point] | 35.5 µM [rising, single point]
CCCCC(=O)NC(=S)NNC(=O)c1ccc(Cl)cc1Cl | 5.62 µM [rising, single point] | 3.55 µM [rising, single point]
Cc1ccc(S(=O)(=O)N(C)Cc2ccc(C(=O)NN=C(CC(C)C)CC(C)C)cc2)cc1 |  | 31.6 µM [rising, single point]
CN(C)/C=C(/C(=O)c1ccccc1)S(=O)(=O)c1ccc(Cl)cc1 | 10 µM [rising, partial curve] | 
Cc1nn(Cc2cccc(C(=O)NC34CC5CC(CC(C5)C3)C4)c2)c(C)c1Br |  | 11.2 µM [rising, partial curve]
Cc1ccc(-c2cn3c(n2)CCCC3)cc1 | 0.0126 µM [rising, full curve, poor fit] | 35.5 µM [rising, single point]
O=C(NC1CC(=O)N(c2cccc(F)c2)C1)c1ccc(S(=O)(=O)N2CCOCC2)cc1 (stereo not given) |  | 1 µM [falling, full curve]
CN(C)c1oc(-c2ccc(OCc3ccccc3)cc2)nc1C#N |  | 35.5 µM [rising, single point]
Cc1cnc(NC(=O)c2cncc(Br)c2)s1 |  | 0.0282 µM [falling, full curve, poor fit]
COc1cc(-c2cc(C(=O)N3CCN(c4ccccn4)CC3)c3ccccc3n2)cc(OC)c1OC |  | 14.1 µM [rising, single point]
O=C(Nc1ccc(N2CCOCC2)c(Cl)c1)c1cc2ccccc2o1 |  | 17.8 µM [rising, single point]
c1ccc(N2CCN(c3ncnc4sc5c(c34)CCC5)CC2)cc1 | 14.1 µM [rising, partial curve, poor fit] | 
COc1ccccc1NC(=O)CSC1=NCCN1 | 14.1 µM [rising, single point] | 35.5 µM [rising, single point]
CC(=O)NS(=O)(=O)c1ccc(NC(=O)/C=C/c2ccccc2Cl)cc1 |  | 0.0794 µM [falling, full curve, poor fit]
Clc1ccc(OCc2nc(-c3ccncc3)no2)c(Cl)c1 |  | 15.8 µM [falling, single point]
O=C(CSc1nnc(-c2ccc(F)cc2)c2ccccc12)Nc1c(F)cccc1F | 20 µM [rising, single point] | 22.4 µM [rising, single point]

SMILES | AC50 [1] | AC50 [2]
CC(NC(=O)c1ccc(Br)o1)c1ccccc1 (stereo not given) | 0.0631 µM [rising, full curve, poor fit] | 
COc1ccccc1-c1nnc(SC2CCc3ccccc3NC2=O)s1 (stereo not given) |  | 12.6 µM [rising, partial curve]
Cc1nc2ccc(NC(=O)c3ccc(S(=O)(=O)N4CCOCC4)cc3)cc2s1 |  | 8.91 µM [rising, partial curve]
S=C(c1ccc(-c2ccccc2Cl)o1)N1CCCCC1 |  | 25.1 µM [rising, single point]
Cc1cc(Nc2ccccc2)n(-c2cccc(Cl)c2)n1 |  | 31.6 µM [rising, single point]
Cc1ccc(S(=O)(=O)Nc2ccc(S(=O)(=O)Nc3cc(C)nc(C)n3)cc2)cc1 | 0.01 µM [falling, full curve, poor fit] | 0.0178 µM [falling, full curve, poor fit]
O=[N+]([O-])c1ncn(Cc2c(Cl)cccc2Cl)n1 |  | 20 µM [rising, partial curve, poor fit]
O=C(Nc1nc(-c2ccc(S(=O)(=O)N3CCCC3)cc2)cs1)c1ccco1 |  | 25.1 µM [rising, partial curve, poor fit]
c1ccc(C2=Nc3c(ccc4ccccc34)C(c3ccncc3)=NN2)cc1 |  | 7.94 µM [falling, partial curve, poor fit]
Cc1ccc(N(CC(C)C)S(=O)(=O)c2nnc(NC(=O)c3ccco3)s2)cc1 | 0.2 µM [rising, full curve, poor fit] | 
Cc1c(C=O)c(C=O)c(C)n1Cc1ccccc1 |  | 2.51 µM [rising, full curve, poor fit]
Cc1ccc2[nH]c3c(c2c1)CN(C(=O)CN1CCN(c2cccc(C)c2C)CC1)CC3 | 25.1 µM [falling, single point] | 14.1 µM [falling, single point]
Cc1cc(C(=O)CCl)c(C)n1-c1cccc(S(=O)(=O)N2CCOCC2)c1 |  | 35.5 µM [falling, single point]
Cc1ccc(CCNC(=O)C2CCC(CNc3c(N4CCC(C)CC4)c(=O)c3=O)CC2)cc1 (stereo not given) | 11.2 µM [rising, single point] | 
Cc1onc(-c2ccccc2Cl)c1C(=O)Nc1nnc(-c2ccc(Br)cc2)s1 |  | 14.1 µM [rising, partial curve]
CSc1cccc(-c2nnc(NC(=O)c3ccc4c(c3)OCCO4)o2)c1 |  | 12.6 µM [rising, partial curve]
COc1ccc(OC)c2sc(NC(=O)CCSc3ccccc3)nc12 |  | 20 µM [rising, single point]
CCN(C(=O)CSc1nnc(Cn2nnc3ccccc32)o1)c1nc(C)cs1 |  | 11.2 µM [rising, partial curve, poor fit]

Another view of part of the listing above.
Cc1onc(-c2ccccc2Cl)c1C(=O)Nc1nnc(-c2ccc(Br)cc2)s1
  AC50 [2]: 14.1 µM [rising, partial curve]
CSc1cccc(-c2nnc(NC(=O)c3ccc4c(c3)OCCO4)o2)c1
  AC50 [2]: 12.6 µM [rising, partial curve]
COc1ccc(OC)c2sc(NC(=O)CCSc3ccccc3)nc12
  AC50 [2]: 20 µM [rising, single point]
